Reference: patent publication US20230312709A1
Numbering of substitutions follows the chain as printed. No constants are given. Whether binding was seen depends on the method and setting. Some results given as binding are weak or reduced against the parent protein; the word gives no strength. Values belong to the binder of their own block, whether it stands above or below them.

Chains of the proteins cited; added tags and fusions are not shown. Residues count along the entry.
UniProt Q08722, residues 19-323: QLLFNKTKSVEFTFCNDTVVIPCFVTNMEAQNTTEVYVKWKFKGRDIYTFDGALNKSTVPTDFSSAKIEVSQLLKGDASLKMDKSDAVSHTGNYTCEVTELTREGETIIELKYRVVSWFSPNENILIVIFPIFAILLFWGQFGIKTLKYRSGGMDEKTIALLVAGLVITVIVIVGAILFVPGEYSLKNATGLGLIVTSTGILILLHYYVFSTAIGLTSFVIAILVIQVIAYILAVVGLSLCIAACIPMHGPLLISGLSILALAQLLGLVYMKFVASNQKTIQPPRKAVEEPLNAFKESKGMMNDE

Key:
[1] = biological target: human RBC (human) (UniProt Q08722); assay: flow cytometry on human red blood cells, PE goat anti-human IgG Fc secondary, MFI [upper left panel]
[2] = biological target: human RBC (human) (UniProt Q08722); assay: flow cytometry on human red blood cells, PE goat anti-human IgG Fc secondary, MFI [lower left panel]
[3] = biological target: human RBC (human) (UniProt Q08722); assay: flow cytometry on human red blood cells, PE goat anti-human IgG Fc secondary, MFI [upper right panel]
[4] = biological target: human platelets (CD61 APC-positive gate P1); assay: flow cytometry on diluted human whole blood, platelets gated as CD61 APC-positive (P1), PE goat anti-human IgG Fc secondary [panel 7A11H12 : P1]

B1: 7A11H32 (antibody, V domains shown)
VH: QVQLVQSGAEVKKPGSSVKVSCKASGSSFTSNWMNWVRQAPGQGLEWIGMIHPSDSETRLNQKFKDRVTITADKSTSTAYMELSSLRSEDTAVYYCARGTTVVDAFAYWGQGTTVTVSS
VL: DIQMTQSPSSLSASVGDRVTMTCKSSQSLLNSRTRKNYLAWYQQKPGKAPKLLIYWASTRESGVPSRFSGSGSGTDFTLTISSLQPEDFATYYCKQSYNLRTFGGGTKLEIK
binding [1]: binds

B4: 7A11H22 (antibody, V domains shown)
VH: B1 VH with S16A, V68A, I70L, A72V
VL: B1 VL
binding [3]: binds

B5: 7A11H12 (antibody, V domains shown)
VH: B1 VH with S7P, S16A, V20L, V68A, I70L, A72V, L86P
VL: B1 VL
binding [4]: binds

Now from value to binder:

binding [2]: binds
B2: 7A11H33 (antibody, V domains shown)
VH: B1 VH
VL: B1 VL with S32T

binding [2]: binds
B3: 7A11H52 (antibody, V domains shown)
VH: B1 VH with S27G, S28T, K65Q, D66G
VL: B1 VL

binding [3]: binds
B6: 7A11H42 (antibody, V domains shown)
VH: B1 VH with K65Q, D66G
VL: B1 VL
